From patent publication US6913925B1, “Human mesencephalon cell lines and methods of use therefor” (Signal Pharmaceuticals LLC, priority 1998, dated 2005)
For at least one compound, name, drawing or mass did not settle the structure.

Protein sequences, listed by entry. Tags and fused reporters are not part of them.
UniProt P04483, whole entry, added parts left off: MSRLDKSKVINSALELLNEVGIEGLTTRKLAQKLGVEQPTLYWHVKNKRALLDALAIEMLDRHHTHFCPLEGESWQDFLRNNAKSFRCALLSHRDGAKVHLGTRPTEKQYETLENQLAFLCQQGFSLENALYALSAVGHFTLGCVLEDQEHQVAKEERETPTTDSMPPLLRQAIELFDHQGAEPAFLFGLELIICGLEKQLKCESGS

Legend:
[1] = system: v-myc oncoprotein expression; assay: v-myc immunofluorescence labeling after differentiation; type: cell-based, human; settings: differentiation with tetracycline, 6 days (FIGS. 2A-2D)
[2] = target: T1, tetracycline-controlled transactivator (tTA) (Escherichia coli, UniProt P04483); settings: tetracycline 0.01-1.0 μg/mL; cited from earlier work
T1 construct: expressed in transfected cells; host or cells: human fetal mesencephalon cells infected with LINX v-myc retrovirus

## CN(C)[C@@H]1C(O)=C(C(N)=O)C(=O)[C@@]2(O)C(O)=C3C(=O)c4c(O)cccc4[C@@](C)(O)[C@H]3C[C@@H]12 [tetracycline]
[1]
  v-myc oncoprotein expression: suppression of v-myc oncoprotein expression
[2]
  transcriptional activation by tTA from phCMV*-1: almost completely abolishes transcriptional activation by tTA
